From article PMC7378191
Results are given in words; binding and its absence hold for the method and conditions named. Binding seen in cells or lysates may run through a third protein. Some entries that bind do so weakly or less than the wild type. Sequences can lack the tags named with a protein.

Protein sequences, listed by entry. Tags and fused reporters are not part of them.
UniProt Q92793: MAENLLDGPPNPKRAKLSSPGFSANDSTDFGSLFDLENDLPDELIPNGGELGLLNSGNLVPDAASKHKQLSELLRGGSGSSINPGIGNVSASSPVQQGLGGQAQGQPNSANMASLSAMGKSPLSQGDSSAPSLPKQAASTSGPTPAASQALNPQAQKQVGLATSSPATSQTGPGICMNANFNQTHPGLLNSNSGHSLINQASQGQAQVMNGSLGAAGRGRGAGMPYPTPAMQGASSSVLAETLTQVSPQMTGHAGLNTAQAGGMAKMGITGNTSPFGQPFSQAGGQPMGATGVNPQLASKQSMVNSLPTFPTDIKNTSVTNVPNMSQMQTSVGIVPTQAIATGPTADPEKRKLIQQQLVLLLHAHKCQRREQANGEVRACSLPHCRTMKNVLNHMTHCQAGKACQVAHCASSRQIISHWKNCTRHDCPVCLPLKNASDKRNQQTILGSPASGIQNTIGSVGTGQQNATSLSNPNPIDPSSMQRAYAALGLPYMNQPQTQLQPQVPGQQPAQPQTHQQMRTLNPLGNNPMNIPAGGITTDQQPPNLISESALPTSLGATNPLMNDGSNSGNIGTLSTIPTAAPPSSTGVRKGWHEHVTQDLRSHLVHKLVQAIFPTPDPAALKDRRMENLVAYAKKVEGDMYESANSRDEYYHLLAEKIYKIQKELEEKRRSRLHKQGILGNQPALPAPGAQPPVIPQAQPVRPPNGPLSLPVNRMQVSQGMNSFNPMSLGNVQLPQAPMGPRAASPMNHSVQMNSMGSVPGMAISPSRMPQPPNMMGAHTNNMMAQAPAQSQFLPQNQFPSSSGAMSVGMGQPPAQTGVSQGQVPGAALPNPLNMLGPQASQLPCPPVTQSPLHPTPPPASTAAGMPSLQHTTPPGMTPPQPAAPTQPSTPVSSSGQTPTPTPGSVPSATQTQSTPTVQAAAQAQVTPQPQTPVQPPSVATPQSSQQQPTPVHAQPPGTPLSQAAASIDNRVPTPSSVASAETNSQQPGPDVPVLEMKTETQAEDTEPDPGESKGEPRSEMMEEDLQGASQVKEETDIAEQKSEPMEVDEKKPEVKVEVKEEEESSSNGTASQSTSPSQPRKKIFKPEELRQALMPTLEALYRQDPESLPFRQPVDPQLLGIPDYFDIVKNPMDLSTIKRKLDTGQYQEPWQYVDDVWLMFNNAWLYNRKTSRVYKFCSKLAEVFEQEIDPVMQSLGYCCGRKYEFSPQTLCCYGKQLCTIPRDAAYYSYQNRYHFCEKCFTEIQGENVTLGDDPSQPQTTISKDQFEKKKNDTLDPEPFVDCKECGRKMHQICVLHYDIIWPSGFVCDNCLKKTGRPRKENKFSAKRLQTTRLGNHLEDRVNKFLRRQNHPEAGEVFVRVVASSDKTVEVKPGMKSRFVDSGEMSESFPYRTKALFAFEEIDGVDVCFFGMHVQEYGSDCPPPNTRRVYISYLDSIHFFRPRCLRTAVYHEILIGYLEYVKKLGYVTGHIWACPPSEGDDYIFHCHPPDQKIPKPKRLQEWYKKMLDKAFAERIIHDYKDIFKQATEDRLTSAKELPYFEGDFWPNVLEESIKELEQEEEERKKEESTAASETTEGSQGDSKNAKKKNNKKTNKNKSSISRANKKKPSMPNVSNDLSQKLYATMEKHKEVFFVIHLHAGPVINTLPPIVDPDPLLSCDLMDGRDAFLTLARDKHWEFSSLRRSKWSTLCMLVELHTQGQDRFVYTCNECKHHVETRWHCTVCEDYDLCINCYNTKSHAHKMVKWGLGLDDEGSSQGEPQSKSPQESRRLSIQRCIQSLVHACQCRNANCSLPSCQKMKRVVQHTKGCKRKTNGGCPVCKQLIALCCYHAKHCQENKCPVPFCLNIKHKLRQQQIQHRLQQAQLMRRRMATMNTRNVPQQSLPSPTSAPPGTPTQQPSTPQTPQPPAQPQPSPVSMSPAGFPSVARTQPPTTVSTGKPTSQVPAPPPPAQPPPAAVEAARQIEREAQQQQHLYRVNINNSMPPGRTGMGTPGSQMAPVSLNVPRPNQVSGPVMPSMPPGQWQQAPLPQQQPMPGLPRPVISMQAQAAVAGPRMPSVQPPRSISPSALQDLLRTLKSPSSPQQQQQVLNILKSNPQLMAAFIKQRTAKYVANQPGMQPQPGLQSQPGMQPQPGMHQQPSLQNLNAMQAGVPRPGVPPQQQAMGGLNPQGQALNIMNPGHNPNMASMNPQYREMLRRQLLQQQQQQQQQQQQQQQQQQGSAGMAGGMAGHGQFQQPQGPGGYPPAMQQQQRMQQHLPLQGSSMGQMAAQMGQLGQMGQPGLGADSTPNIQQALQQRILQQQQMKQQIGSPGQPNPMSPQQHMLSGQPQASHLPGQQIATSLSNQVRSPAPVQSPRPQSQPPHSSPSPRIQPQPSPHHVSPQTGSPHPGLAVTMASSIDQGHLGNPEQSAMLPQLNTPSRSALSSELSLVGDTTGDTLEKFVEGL

T1: Flag-tagged HSD17B10 (17-beta-hydroxysteroid dehydrogenase 10), wild type (human) (UniProt Q99714)
T1 sequence: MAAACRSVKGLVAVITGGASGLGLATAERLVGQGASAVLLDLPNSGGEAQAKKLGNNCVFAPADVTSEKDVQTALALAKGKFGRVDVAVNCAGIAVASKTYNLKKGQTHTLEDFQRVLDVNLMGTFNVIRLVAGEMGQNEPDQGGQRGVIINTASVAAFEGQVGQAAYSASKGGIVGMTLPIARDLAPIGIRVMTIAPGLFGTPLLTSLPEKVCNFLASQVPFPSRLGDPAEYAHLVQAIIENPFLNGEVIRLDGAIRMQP


Columns and labels:
[1] = target: T1, Flag-tagged HSD17B10 (17-beta-hydroxysteroid dehydrogenase 10), wild type (human); test: co-IP; tagged proteins co-transfected into HEK293T cells; lysis in BC100 buffer (100 mM NaCl, 20 mM pH7.3 Tris, 20% glycerol, 0.2% NP-40); immunoprecipitation with anti-Flag M2 beads at 4 °C overnight; western blot
[2] = target: HA-tagged CBP (acetyltransferase) (UniProt Q92793); test: co-IP; HA-tagged CBP and Flag-tagged HSD17B10 co-transfected into HEK293T cells; immunoprecipitation with anti-HA beads at 4 °C overnight; western blot

Row | binding [1] | binding [2] | Molecule
1 | binds |  | HA-tagged CBP (acetyltransferase) (from UniProt Q92793 1-2442) (enzyme)
2 |  | binds | Flag-tagged HSD17B10 (17-beta-hydroxysteroid dehydrogenase 10), wild type (protein, UniProt Q99714 1-261) MAAACRSVKGLVAVITGGASGLGLATAERLVGQGASAVLLDLPNSGGEAQAKKLGNNCVFAPADVTSEKDVQTALALAKGKFGRVDVAVNCAGIAVASKTYNLKKGQTHTLEDFQRVLDVNLMGTFNVIRLVAGEMGQNEPDQGGQRGVIINTASVAAFEGQVGQAAYSASKGGIVGMTLPIARDLAPIGIRVMTIAPGLFGTPLLTSLPEKVCNFLASQVPFPSRLGDPAEYAHLVQAIIENPFLNGEVIRLDGAIRMQP
